Laboratory results: PubChem BioAssay AID1224828 (NIAID, 2016)

Test: 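Regulators linking TLR4 signalling to p65 nuclear translocation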 (primary screen)
System: mouse RAW264.7 G9 macrophage reporter cells (GFP-p65, Tnf promoter-mCherry)
Knock-down reagent: siRNA pool against mouse genes, 100 nM
Duration: 2 days siRNA transfection, then 40 min LPS before fixation
Challenge: LPS (Salmonella minnesota R595) at 10 ng/ml
Measurement: 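Microscopy ratio of nuclear to perinuclear-ring GFP-p65 signal, scaled to the plate median; gene score is the average of two replicate robust z-scores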
Scale: p65 translocation robust z-score: higher = more nuclear NF-kappaB p65 after LPS than the plate median; nuclear/cytoplasmic p65 ratio: higher = more nuclear NF-kappaB p65
Rule for the call: 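Called active when z exceeds 3.3 or falls under -1.56 (median of Tlr4 controls), giving activity score of at least 50; no calls for control wells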
Calls: active = hit (p65 shift raised or lowered); inactive = no clear change
In all, the deposit lists about 17,000 reagents; this is a random part of them. 762 of all reagents (4.5%) were called active. 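Active calls include both raised and lowered p65 entry, mostly lowered; wells with fewer than 50 cells lack a z-score.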 Raw values vary from plate to plate and are shown uncorrected.

no.	Gene	p65 translocation robust z-score	nuclear/cytoplasmic p65 ratio, rep 1	nuclear/cytoplasmic p65 ratio, rep 2	low cell count flag	activity call
1	Nav2 (neuron navigator 2)	0.24	1.39	1.3	enough cells to score	inactive
2	Atp6v1c2 (ATPase, H+ transporting, lysosomal V1 subunit C2)	-0.44	1.45	1.54	enough cells to score	inactive
3	Piwil1 (piwi-like RNA-mediated gene silencing 1)	-0.46	1.51	1.28	enough cells to score	inactive
4	Rbm6 (RNA binding motif protein 6)	-1.09	1.37	1.26	enough cells to score	inactive
5	Gdf11 (growth differentiation factor 11)	0.27	1.45	1.43	enough cells to score	inactive
6	Dnase1l1 (deoxyribonuclease 1-like 1)		1.15	1.42	fewer than 50 cells per well; well left out of scoring	inactive
7	Rab29 (RAB29, member RAS oncogene family)	1.36	1.75	1.66	enough cells to score	inactive
8	Chil4 (chitinase-like 4)	0.14	1.61	1.81	enough cells to score	inactive
9	Acyp2 (acylphosphatase 2, muscle type)	0.07	1.57	1.68	enough cells to score	inactive
10	Scamp5	-2.27	1.1	0.983	enough cells to score	active
11	Pcmtd1	1	1.48	1.7	enough cells to score	inactive
12	Swap70 (SWA-70 protein)		1.32	1.16	fewer than 50 cells per well; well left out of scoring	inactive
13	Pnliprp1 (pancreatic lipase related protein 1)	-1.76	1.07	1.35	enough cells to score	active
14	Acad9 (acyl-Coenzyme A dehydrogenase family, member 9)	-0.45	1.49	1.66	enough cells to score	inactive
15	Sel1l3 (sel-1 suppressor of lin-12-like 3 (C. elegans))		1.31	1.3	fewer than 50 cells per well; well left out of scoring	inactive
16	Dnajb8 (DnaJ heat shock protein family (Hsp40) member B8)	1.08	1.63	1.48	enough cells to score	inactive
17	Clrn3 (clarin 3)	1.76	1.81	2.01	enough cells to score	inactive
18	Gjb1 (gap junction protein, beta 1)	0.1	1.12	1.4	enough cells to score	inactive
19	Wt1 (WT1 transcription factor)	-0.15	1.51	1.47	enough cells to score	inactive
20	Fbxw16 (F-box and WD-40 domain protein 16)		1.21	1.64	fewer than 50 cells per well; well left out of scoring	inactive
21	Agbl3 (ATP/GTP binding protein-like 3)	2.72	1.79	1.93	enough cells to score	inactive
22	Mindy2 (MINDY lysine 48 deubiquitinase 2)	-0.62	1.5	1.43	enough cells to score	inactive
23	Rhbdd3 (rhomboid domain containing 3)		1.15	1.05	fewer than 50 cells per well; well left out of scoring	inactive
24	Cdkn3 (cyclin dependent kinase inhibitor 3)	-0.56	1.55	1.35	enough cells to score	inactive
25	Hdac11 (histone deacetylase 11)	1.11	1.6	1.5	enough cells to score	inactive
26	Gtpbp1 (GTP binding protein 1)	0.32	1.57	1.7	enough cells to score	inactive

Part of the list above, reduced to “low cell count flag”.
Swap70 (SWA-70 protein)	fewer than 50 cells per well; well left out of scoring
Pnliprp1 (pancreatic lipase related protein 1)	enough cells to score
Acad9 (acyl-Coenzyme A dehydrogenase family, member 9)	enough cells to score
Sel1l3 (sel-1 suppressor of lin-12-like 3 (C. elegans))	fewer than 50 cells per well; well left out of scoring
Dnajb8 (DnaJ heat shock protein family (Hsp40) member B8)	enough cells to score
Clrn3 (clarin 3)	enough cells to score
Gjb1 (gap junction protein, beta 1)	enough cells to score
Wt1 (WT1 transcription factor)	enough cells to score
Fbxw16 (F-box and WD-40 domain protein 16)	fewer than 50 cells per well; well left out of scoring
Agbl3 (ATP/GTP binding protein-like 3)	enough cells to score
Mindy2 (MINDY lysine 48 deubiquitinase 2)	enough cells to score

Further entries follow.
no.	Gene	p65 translocation robust z-score	nuclear/cytoplasmic p65 ratio, rep 1	nuclear/cytoplasmic p65 ratio, rep 2	low cell count flag	activity call
27	Scgb2b24 (secretoglobin, family 2B, member 24)	1.12	1.68	1.58	enough cells to score	inactive
28	Disp3 (dispatched RND transporter family member 3)	0.33	1.66	1.49	enough cells to score	inactive
29	Porcn (porcupine O-acyltransferase)	1.55	1.71	1.61	enough cells to score	inactive
30	Hdac3 (histone deacetylase 3)	-0.81	1.37	1.23	enough cells to score	inactive
31	Tmem198 (transmembrane protein 198)	-1.06	1.4	1.38	enough cells to score	inactive
32	Slc30a8		1.07	1.26	fewer than 50 cells per well; well left out of scoring	inactive
33	Cldn19 (claudin 19)	-1.41	1.28	1.66	enough cells to score	inactive
34	Adat2 (adenosine deaminase, tRNA-specific 2)	1.19	1.72	2.12	enough cells to score	inactive
35	Mapk8ip1 (mitogen-activated protein kinase 8 interacting protein 1)	0.41	2.37	1.43	enough cells to score	inactive
36	Nup188 (nucleoporin 188)	-1.68	1.45	1.2	enough cells to score	active
37	Celf1 (CUGBP, Elav-like family member 1)	-0.58	1.42	1.29	enough cells to score	inactive
38	Or6a2 (olfactory receptor family 6 subfamily A member 2)	2.21	1.83	1.65	enough cells to score	inactive
39	Rabif (RAB interacting factor)	0.85	1.48	1.58	enough cells to score	inactive
40	Or5p66 (olfactory receptor family 5 subfamily P member 66)		1.45	2.08	fewer than 50 cells per well; well left out of scoring	inactive
41	Cdh24 (cadherin-like 24)	0.32	1.58	1.91	enough cells to score	inactive
42	Or10k2 (olfactory receptor family 10 subfamily K member 2)	-0.96	1.45	1.31	enough cells to score	inactive
43	Xpnpep1 (X-prolyl aminopeptidase (aminopeptidase P) 1, soluble)	0.8	1.5	1.73	enough cells to score	inactive
44	1700013G24Rik (RIKEN cDNA 1700013G24 gene)	-0.78	1.29	1.16	enough cells to score	inactive
45	Zfp35 (zinc finger protein 35)	1.36	1.52	1.47	enough cells to score	inactive
46	Gm57858 (gene model 57858)	-0.1	1.46	1.47	enough cells to score	inactive
47	Slfn5 (schlafen 5)		1.13	1.1	fewer than 50 cells per well; well left out of scoring	inactive
48	Drc3 (dynein regulatory complex subunit 3)		1.2	0	fewer than 50 cells per well; well left out of scoring	inactive
49	Hoxc10 (homeobox C10)	-0.8	1.32	1.28	enough cells to score	inactive
50	Sec14l4 (SEC14-like lipid binding 4)	1.19	1.54	1.39	enough cells to score	inactive
51	Vmn1r38 (vomeronasal 1 receptor 38)	0.19	1.4	1.26	enough cells to score	inactive
52	Ptpra (protein tyrosine phosphatase receptor type A)	1	1.7	1.48	enough cells to score	inactive
53	Npepl1 (aminopeptidase-like 1)	0.66	1.78	1.66	enough cells to score	inactive
54	Slc22a15	0.02	1.34	1.24	enough cells to score	inactive
55	Or5a1 (olfactory receptor family 5 subfamily A member 1)		1.7	1.32	fewer than 50 cells per well; well left out of scoring	inactive
56	4933434M16Rik (RIKEN cDNA 4933434M16 gene)	0.58	1.4	1.58	enough cells to score	inactive
57	Cep15 (centrosomal protein 15)	-1.47	1.16	1.03	enough cells to score	inactive
58	Slc2a6		1.36	1.07	fewer than 50 cells per well; well left out of scoring	inactive
59	1810009J06Rik (RIKEN cDNA 1810009J06 gene)	0.3	1.45	1.44	enough cells to score	inactive
60	Or56a3 (olfactory receptor family 56 subfamily A member 3)		1.48	1.26	fewer than 50 cells per well; well left out of scoring	inactive
61	Mlh1 (mutL homolog 1)	-0.12	1.4	1.36	enough cells to score	inactive
62	Mdk (midkine)	0.37	1.41	1.39	enough cells to score	inactive
63	Napsa (napsin A aspartic peptidase)	1.87	1.53	1.85	enough cells to score	inactive
64	Mefv (Mediterranean fever)	2.07	1.73	1.59	enough cells to score	inactive
65	Farsa (phenylalanyl-tRNA synthetase, alpha subunit)	-1.38	1.31	1.18	enough cells to score	inactive
66	Chgb (chromogranin B)	-0.3	1.43	1.33	enough cells to score	inactive
67	Zbtb35 (zinc finger and BTB domain containing 35)		1.56	1.23	fewer than 50 cells per well; well left out of scoring	inactive
68	Zic4 (zinc finger protein of the cerebellum 4)		1.4	1.42	fewer than 50 cells per well; well left out of scoring	inactive
69	Foxn4 (forkhead box N4)	-0.49	1.51	1.41	enough cells to score	inactive
70	2810021J22Rik (RIKEN cDNA 2810021J22 gene)	0.39	1.42	1.54	enough cells to score	inactive
71	Adrb1 (adrenergic receptor, beta 1)		1.72	1.6	fewer than 50 cells per well; well left out of scoring	inactive
72	Yipf2 (Yip1 domain family, member 2)	-0.04	1.56	1.41	enough cells to score	inactive
73	Aldh1b1 (aldehyde dehydrogenase 1 family, member B1)	-0.17	1.6	1.58	enough cells to score	inactive
74	Radil (Ras association and DIL domains)	-1.3	1.35	1.4	enough cells to score	inactive
75	Slc47a1	1.28	1.57	1.76	enough cells to score	inactive
